Laboratory results from PubChem BioAssay AID504467 (National Center for Advancing Translational Sciences (NCATS), 2011).
In all, about 330,000 compounds went through this assay and about 7,700 (2.3%) were called active. This list was built around the results that the source calls inconclusive (neither active nor inactive); the mix of calls is not that of the screen. Calls follow the shape of the dose curve; as a rule, active = well fitted inhibition curve with a large enough effect; inconclusive = small, poorly fitted or top-dose-only effect, or effect the other way; inactive = flat fitted curve, though single readings scatter. Where the call is inconclusive, the potency comes from a doubtful curve fit.
Potency is read from the fitted curve at half-maximal effect.

Experiment: qHTS screen for small molecules that inhibit ELG1-dependent DNA repair in human embryonic kidney (HEK293T) cells expressing luciferase-tagged ELG1; also: nearly all actives have a fitted effect of over 55% in size
Conditions: HEK293T ELG1-luciferase reporter, luminescence, 16 h, DNA damage induced by 5-fluorouridine; series mostly up to 46.1 µM
Procedure, shortened: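 In this reporter screen, reduction of luminescence relative to DMSO vehicle indicated activity. Compounds and 5-fluorouridine were added together to 2,000 cells per well, incubated for 16 hr at 37 °C, then developed with ONE-Glo.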
For Cc1ccc(NC(=O)CCCc2nc3ccccc3c(=O)[nH]2)c(Cl)c1, the Potency was “inactive”. For CS(=O)(=O)N(CC(=O)N1CCN(c2ccccc2F)CC1)c1cccc(C(F)(F)F)c1, the Potency was inconclusive: 18.4 µM [inhibitor, single point]. In the case of C=CCc1cccc2cc(C(=O)N3CCN(c4ccccn4)CC3)c(=O)oc12, the Potency is reported as “inactive”. With c1ccc2c(-c3nc(-c4ccncc4)no3)cccc2c1 the Potency was inconclusive: 20.6 µM [activator, partial curve]. With O=C1CNC(=S)N1Cc1ccc(Cl)cc1 the Potency was “inactive”. For COc1ccc(OCc2nn3c(-c4cccc(OC)c4)nnc3s2)cc1, the Potency was “inactive”. In the case of COc1ccc2oc(C(=O)OCc3nnc(-c4ccccc4)o3)c(C)c2c1, the Potency is reported as “inactive”. With Cc1cc(NC(=O)CN2C(=O)NC(c3ccccc3)(c3ccc(C)c(C)c3)C2=O)no1 (configuration not stated) the Potency was inconclusive: 29.1 µM [inhibitor, single point]. With Cc1ccc(NC(=O)C2CCCN(c3ncccn3)C2)c(C)c1 (configuration not stated) the Potency was inconclusive: 18.3 µM [activator, single point]. With CC(C)N(C(=O)CSc1nc2ccccc2n1Cc1ccccc1F)C(C)C the Potency was inconclusive: 18.4 µM [inhibitor, single point]. With O=C(Nc1ccc(C(F)(F)F)cc1)c1cc(S(=O)(=O)NCC2COc3ccccc3O2)ccc1F (configuration not stated) the Potency was “inactive”. For CCC(C)[C@H](NC(=O)[C@@H]1Cc2c([nH]c3ccccc23)C2c3ccccc3C(=O)N21)C(=O)N1CCC[C@@H]1C(=O)O (some centres not stated), the Potency was “inactive”. For CCN(CC(=O)Nc1cc(Cl)ccc1C)C(=O)Cc1ccsc1, the Potency was “inactive”. In the case of CC(=O)CCC(=O)OCC(=O)c1ccc(C(F)(F)F)cc1, the Potency is reported as inconclusive: 25.9 µM [inhibitor, single point]. In the case of O=C(NNC(=O)c1cccs1)c1csc(N2CCOCC2)n1, the Potency is reported as “inactive”. In the case of Cc1ccc(N2CC(C)Cn3c2nc2c3c(=O)[nH]c(=O)n2C)cc1 (configuration not stated), the Potency is reported as “inactive”. For COc1nc(Nc2ccc(C(C)C)cc2)nc(OC)n1, the Potency was inconclusive: 18.4 µM [activator, partial curve]. With CCc1nnc(NS(=O)(=O)c2ccc(N/C=C\C(=O)c3ccc(C)cc3)cc2)s1 the Potency was inconclusive: 29.1 µM [activator, single point]. With CC(C)c1ccc(-c2csc3nc[nH]c(=O)c23)cc1 the Potency was inconclusive: 35.5 µM [activator, single point]. For O=C(/C=C/c1cccs1)Nc1ccc(N2CCOCC2)c(S(=O)(=O)Nc2cc(Cl)ccc2Cl)c1, the Potency was inconclusive: 11.6 µM [inhibitor, partial curve, poor fit]. For O=C(Nc1ccc(-n2cc(Br)cn2)cc1)c1ccncc1, the Potency was “inactive”. With Nc1ccc2nc(SCc3ccccc3F)sc2c1 the Potency was inconclusive: 13 µM [activator, partial curve]. With Cc1sc(N/N=C/c2cccs2)nc1-c1ccccc1 the Potency was inconclusive: 16.4 µM [activator, partial curve]. In the case of O=C(N/N=C/c1ccc(-c2ccccc2)o1)c1ccccc1O, the Potency is reported as inconclusive: 20.6 µM [inhibitor, partial curve]. In the case of O=C(c1noc2c1CCCC2)N1CCc2c([nH]c3ccccc23)C1c1ccccn1 (configuration not stated), the Potency is reported as inconclusive: 23.1 µM [inhibitor, partial curve, poor fit]. With O=S(=O)(Cc1ccc(Cl)cc1)c1ccccc1-c1nnc(-c2ccc(Cl)cc2)o1 the Potency was inconclusive: 18.4 µM [inhibitor, partial curve, poor fit]. For CC1CCN(c2oc(-c3cccc4ccccc34)nc2C#N)CC1, the Potency was inconclusive: 7.31 µM [activator, partial curve]. In the case of Cc1cc(C)[n+]2[nH]c(N)c(N=Nc3ccccc3)c2n1, the Potency is reported as inconclusive: 18.3 µM [inhibitor, partial curve, poor fit]. In the case of COC(=O)c1cc(OC)c(OC)cc1NC(=O)c1ccc(C)cc1, the Potency is reported as inconclusive: 20.6 µM [inhibitor, partial curve]. In the case of CCn1cc(CNC(=O)c2cc(COc3ccc(F)cc3F)on2)cn1, the Potency is reported as inconclusive: 18.3 µM [inhibitor, partial curve, poor fit]. In the case of CCNc1nc(C23CC4CC(CC(C4)C2)C3)cs1, the Potency is reported as “inactive”. For CCN1C(=O)C(CC(=O)Nc2ccc(F)cc2)N(CCCN2CCN(c3ccc(F)cc3)CC2)C1=S (configuration not stated), the Potency was inconclusive: 20.6 µM [inhibitor, single point]. For O=C(Cc1nc2ccccc2[nH]1)c1ccc(Cl)cc1, the Potency was inconclusive: 4.61 µM [activator, partial curve]. In the case of COc1ccc(-c2csc(N(CCCN(C)C)C(=O)c3ccccc3F)n2)cc1, the Potency is reported as “inactive”. With CCn1c(C)nc2cc(S(N)(=O)=O)ccc21 the Potency was “inactive”. In the case of CCOC(=O)[C@H]1[C@H]2COc3ccc(Cl)cc3[C@@H]2N2C(=O)c3cc(Br)ccc3NC(=O)[C@@]12C, the Potency is reported as “inactive”. In the case of OCCCn1c(-c2ccccc2)nc(=S)c2c1CCCC2, the Potency is reported as “inactive”. For COC(=O)CNS(=O)(=O)c1ccc(Cc2ccc(S(=O)(=O)NCC(=O)OC)cc2)cc1, the Potency was inconclusive: 1.46 µM [activator, full curve]. With Cc1ccc(C)c(N(C(=O)c2csnn2)C(C(=O)NC2CCCCC2)c2ccccn2)c1 (configuration not stated) the Potency was “inactive”. With COc1ccc(Cn2c(O)c(C=Nc3ccc(O)cc3)c3ccccc3c2=O)cc1 the Potency was active: 23.1 µM. For COC(=O)C(Cc1ccccc1)NC(=S)NC(=O)c1ccccc1 (configuration not stated), the Potency was “inactive”. For CC(C)C(=O)Nc1cccc(NC(=S)NC(=O)c2ccccc2Cl)c1, the Potency was inconclusive: 29.1 µM [inhibitor, single point]. In the case of O=C(O)Cc1coc2ccc3ccccc3c12, the Potency is reported as “inactive”. In the case of CCOc1nc2cnccc2n(CC(=O)Nc2ccccc2C(=O)OC)c1=O, the Potency is reported as “inactive”. In the case of COc1ccc(OC)c(/C=N/NC(=O)C(=O)N2CCCCCC2)c1, the Potency is reported as “inactive”. For CCCN(CCC)c1nc(N)nc(-c2cc(Cl)ccc2OC)n1, the Potency was “inactive”. In the case of COc1ccc(NC(=O)c2ccccc2OCc2ccc(F)cc2)c(OC)c1, the Potency is reported as inconclusive: 29.1 µM [inhibitor, single point]. In the case of COc1ccc(NC(=O)c2cccc(S(=O)(=O)N(C)c3ccccc3)c2)cn1, the Potency is reported as inconclusive: 23.1 µM [inhibitor, single point]. With Fc1ccc(-c2nnn(Cc3ccc(F)cc3Cl)n2)cc1 the Potency was inconclusive: 29.1 µM [activator, single point]. For COc1ccc(OC)c(NC(=O)COc2coc(CN3CCc4ccccc43)cc2=O)c1, the Potency was inconclusive: 0.411 µM [inhibitor, partial curve, poor fit]. In the case of COc1ccc(OC)c(NC(=O)COC(=O)c2c3c(nc4ccccc24)CCCC3)c1, the Potency is reported as active: 11.6 µM. With COCCCn1cc(C(=O)c2cc(OC)ccc2OCC(=O)Nc2cc(C)on2)cc(C#N)c1=O the Potency was “inactive”. With COC1c2ccccc2C(=O)N1CCc1ccc(Cl)cc1 (configuration not stated) the Potency was inconclusive: 14.1 µM [activator, partial curve, poor fit]. In the case of COc1ccc2sc(-c3ccc(S(C)(=O)=O)cc3)c(C#CCO)c2c1, the Potency is reported as inconclusive: 29.1 µM [inhibitor, single point]. For O=c1c2ccccc2nc(-c2ccco2)n1CCCn1ccnc1, the Potency was inconclusive: 7.94 µM [activator, partial curve, poor fit]. For N#Cc1cc(-c2ccccc2)nn1-c1ccccc1, the Potency was inconclusive: 9.2 µM [activator, partial curve, poor fit]. For CC(=O)N=C(N)Sc1nc2ccccc2[nH]1, the Potency was inconclusive: 5.8 µM [activator, full curve]. In the case of COc1ccc(-c2nc(CN3CCC(C(=O)N4CCc5ccccc54)CC3)c(C)o2)cc1OC, the Potency is reported as inconclusive: 14.6 µM [inhibitor, partial curve]. For CN1CCN(CCOc2ccc(-c3ccccc3)cc2)CC1, the Potency was inconclusive: 18.3 µM [activator, partial curve, poor fit]. In the case of O=S(NC1CCCCC1)C12CC3CC(CC(C3)C1)C2 (configuration not stated), the Potency is reported as inconclusive: 5.17 µM [inhibitor, partial curve, poor fit]. With CCCCC(=O)NNC(=O)c1c(O)c2ccccc2[nH]c1=O the Potency was “inactive”. With Cc1cccc(N/C=C/C(=O)c2cccs2)c1C the Potency was inconclusive: 0.731 µM [activator, full curve]. For CC(=O)Oc1ccc2c3c(c(=O)oc2c1)CCCC3, the Potency was “inactive”. In the case of CCCn1c(C)cc(-c2csc(NC(=O)CCc3nc4ccccc4c(=O)[nH]3)n2)c1C, the Potency is reported as inconclusive: 6.51 µM [inhibitor, single point]. For O=C(NC(NC(=O)c1ccccc1)c1ccccc1)c1ccccc1, the Potency was inconclusive: 29.1 µM [activator, single point]. In the case of Oc1ccccc1/C=C/c1noc(-c2ccccc2O)n1, the Potency is reported as inconclusive: 7.3 µM [activator, partial curve]. For CCOC(=O)c1cn2ccc(C)cc2n1, the Potency was inconclusive: 20.6 µM [activator, partial curve]. With CC(C)c1ccc(/C=N\NC(=O)c2ccc(Cn3cccn3)o2)cc1 the Potency was inconclusive: 13 µM [activator, partial curve]. With CCOC(=O)c1sc(NC(=O)C(C)Sc2nnc(N)s2)nc1C (configuration not stated) the Potency was inconclusive: 23.1 µM [activator, single point]. With COc1ccc(/C=C2\SC(=O)N(CCNC(=O)C3CC4C=CC3C4)C2=O)cc1 (configuration not stated) the Potency was inconclusive: 5.17 µM [activator, single point]. For COC(=O)c1ccc(CO/N=C/c2cccc([N+](=O)[O-])c2)cc1, the Potency was inconclusive: 16.4 µM [activator, partial curve, poor fit]. With CCOC(=O)c1ccc(NC(=O)Oc2cc(C)c(Cl)cc2C(C)C)cc1 the Potency was “inactive”.
